Test results as given in PubChem BioAssay AID252 (DTP/NCI, 2004).
The list does not hold the whole screen: it gathers tests that were run many times, whatever their T/C, doses with no T/C, and many T/C values between a quarter and a half above the control. Other doses and runs of a compound stand elsewhere. T/C is the treated group as % of the vehicle group. Some entries give survivors of the animals treated and no T/C: the source files T/C as zero there, which appears to mark a toxic dose or a test without result, not a measured value. Some survivor counts are full or nearly so, which does not show that the dose was tolerated: the source hardly ever lists a survival T/C far under the control, and the zero likely stands for such cases as well. Survivors were counted at the toxicity check, usually on the fifth day, unless a day is given; later deaths do not show. Schedules are NCI's codes, read here as Q, the interval in days (D) or hours (H), X, the number of doses. For survival time, the PubChem record calls one and a half times the control and up active, and a quarter to a half above the control has no call in these data; cut-offs in other NCI protocols can differ. Some doses were run more than once; the values are given in rising order. Some T/C values carry the count of animals alive at the toxicity check (mostly the fifth day); without a count, all were alive then.

Tested on: BDF1 mice, intracerebral L1210 leukemia, survival T/C
Experiment: NCI In Vivo Anticancer Drug Screen. Data for tumor model L1210 Leukemia (intracerebral) in B6D2F1 (BDF1) mice
Settings: T/C endpoint: mean survival time, higher T/C = longer survival
How it was run: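 Mice carrying transplanted tumour were dosed with compound; survival was recorded and expressed as treated-group value (T) divided by vehicle-control value (C).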

CCN(CC)CCNc1ccc(CO)c2sc3ccccc3c(=O)c12
survivor count (dose: 128.0 mg/kg/injection, schedule: Q01DX005 (ip), vehicle: saline): 10 of 10
survivor count (dose: 256.0 mg/kg/injection, schedule: Q01DX005 (ip), vehicle: saline): 4 of 10

O=NN(CCCl)C(=O)NCCCl
T/C (dose: 2.0 mg/kg/injection, schedule: Q01DX009 (ip), vehicle: other): 137 % of control
T/C (dose: 4.0 mg/kg/injection, schedule: Q01DX005 (ip), vehicle: saline): 131 % of control
T/C (dose: 5.5 mg/kg/injection, schedule: Q04DX003 (ip), vehicle: saline + alcohol): 148 % of control
T/C (dose: 6.0 mg/kg/injection, schedule: Q01DX001 (ip), vehicle: saline): 128 and 131 % of control
T/C (dose: 7.0 mg/kg/injection, schedule: Q01DX001 (ip), vehicle: other): 134 % of control
T/C (dose: 8.4 mg/kg/injection, schedule: Q01DX001 (ip), vehicle: saline): 131 % of control
T/C (dose: 9.0 mg/kg/injection, schedule: Q01DX001 (ip), vehicle: saline): 139 and 140 % of control
T/C (dose: 10.0 mg/kg/injection, schedule: Q01DX001 (ip), vehicle: other): 134 % of control [9 of 10 alive]
T/C (dose: 10.0 mg/kg/injection, schedule: Q01DX001 (ip), vehicle: saline, evaluated on day 7): 149 % of control
T/C (dose: 10.0 mg/kg/injection, schedule: Q01DX001 (ip), vehicle: saline, evaluated on day 15): 154 % of control
T/C (dose: 10.0 mg/kg/injection, schedule: Q01DX001 (ip), vehicle: saline, evaluated on day 21): 145 % of control
T/C (dose: 10.0 mg/kg/injection, schedule: Q01DX001 (ip), vehicle: saline, evaluated on day 30): 138 and 149 % of control
T/C (dose: 10.0 mg/kg/injection, schedule: Q01DX001 (ip), vehicle: saline, evaluated on day 33): 124 % of control
T/C (dose: 10.0 mg/kg/injection, schedule: Q01DX001 (ip), vehicle: saline, evaluated on day 40): 128, 135, 142 % of control
T/C (dose: 10.0 mg/kg/injection, schedule: Q01DX001 (ip), vehicle: saline, evaluated on day 45): 157 % of control
T/C (dose: 10.0 mg/kg/injection, schedule: Q01DX001 (ip), vehicle: saline, evaluated on day 60): 162 % of control
T/C (dose: 10.0 mg/kg/injection, schedule: Q01DX001 (ip), vehicle: saline, run until all animals had died): 135 and 157 % of control
T/C (dose: 10.0 mg/kg/injection, schedule: Q01DX001 (oral), vehicle: saline, evaluated on day 30): 145 % of control
T/C (dose: 10.0 mg/kg/injection, schedule: Q01DX001 (oral), vehicle: saline, run until all animals had died): 134 % of control
T/C (dose: 12.0 mg/kg/injection, schedule: Q01DX001 (ip), vehicle: saline): 141 % of control
T/C (dose: 14.0 mg/kg/injection, schedule: Q01DX001 (ip), vehicle: saline, evaluated on day 7): 124 % of control
T/C (dose: 14.0 mg/kg/injection, schedule: Q01DX001 (ip), vehicle: saline, evaluated on day 19): 246 % of control
T/C (dose: 14.0 mg/kg/injection, schedule: Q01DX001 (ip), vehicle: saline, evaluated on day 27): 130 % of control
T/C (dose: 14.0 mg/kg/injection, schedule: Q01DX001 (ip), vehicle: saline, evaluated on day 30): 155 % of control
T/C (dose: 15.0 mg/kg/injection, schedule: Q01DX001 (ip), vehicle: saline): 133 % of control
T/C (dose: 20.0 mg/kg/injection, schedule: Q01DX001 (ip), vehicle: saline, evaluated on day 7): 193 % of control
T/C (dose: 20.0 mg/kg/injection, schedule: Q01DX001 (ip), vehicle: saline, evaluated on day 15): 178 % of control
T/C (dose: 20.0 mg/kg/injection, schedule: Q01DX001 (ip), vehicle: saline, evaluated on day 21): 194 % of control
T/C (dose: 20.0 mg/kg/injection, schedule: Q01DX001 (ip), vehicle: saline, evaluated on day 30): 193 % of control
T/C (dose: 20.0 mg/kg/injection, schedule: Q01DX001 (ip), vehicle: saline, evaluated on day 33): 152 % of control
T/C (dose: 20.0 mg/kg/injection, schedule: Q01DX001 (ip), vehicle: saline, evaluated on day 40): 189 and 267 % of control
T/C (dose: 20.0 mg/kg/injection, schedule: Q01DX001 (ip), vehicle: saline, evaluated on day 45): 264 % of control
T/C (dose: 20.0 mg/kg/injection, schedule: Q01DX001 (ip), vehicle: saline, evaluated on day 60): 253 % of control
T/C (dose: 20.0 mg/kg/injection, schedule: Q01DX001 (ip), vehicle: saline, run until all animals had died): 149, 230, 287 % of control
T/C (dose: 23.0 mg/kg/injection, schedule: Q01DX001 (ip), vehicle: saline, evaluated on day 7): 193 % of control
T/C (dose: 23.0 mg/kg/injection, schedule: Q01DX001 (ip), vehicle: saline, evaluated on day 19): 246 % of control
T/C (dose: 23.0 mg/kg/injection, schedule: Q01DX001 (ip), vehicle: saline, evaluated on day 27): 163 % of control
T/C (dose: 23.0 mg/kg/injection, schedule: Q01DX001 (ip), vehicle: saline, evaluated on day 30): 255 % of control [9 of 10 alive]
survivor count (dose: 32.0 mg/kg/injection, schedule: Q01DX009 (ip), vehicle: other): 10 of 10
T/C (dose: 39.0 mg/kg/injection, schedule: Q01DX001 (ip), vehicle: saline, evaluated on day 7): 96 % of control
T/C (dose: 39.0 mg/kg/injection, schedule: Q01DX001 (ip), vehicle: saline, evaluated on day 19): 138 % of control
T/C (dose: 39.0 mg/kg/injection, schedule: Q01DX001 (ip), vehicle: saline, evaluated on day 27): 101 % of control
T/C (dose: 39.0 mg/kg/injection, schedule: Q01DX001 (ip), vehicle: saline, evaluated on day 30): 169 % of control
T/C (dose: 39.0 mg/kg/injection, schedule: Q01DX001 (ip), vehicle: saline, run until all animals had died): 106, 272, 276, 300 % of control
T/C (dose: 40.0 mg/kg/injection, schedule: Q01DX001 (ip), vehicle: saline, evaluated on day 7): 213 % of control
T/C (dose: 40.0 mg/kg/injection, schedule: Q01DX001 (ip), vehicle: saline, evaluated on day 21): 190 % of control [7 of 8 alive]
T/C (dose: 40.0 mg/kg/injection, schedule: Q01DX001 (ip), vehicle: saline, evaluated on day 30): 162 and 213 % of control
T/C (dose: 40.0 mg/kg/injection, schedule: Q01DX001 (ip), vehicle: saline, evaluated on day 33): 297 % of control
T/C (dose: 40.0 mg/kg/injection, schedule: Q01DX001 (ip), vehicle: saline, evaluated on day 40): 145 [7 of 8 alive], 174, 213 % of control
T/C (dose: 40.0 mg/kg/injection, schedule: Q01DX001 (ip), vehicle: saline, evaluated on day 60): 262 % of control
T/C (dose: 62.0 mg/kg/injection, schedule: Q01DX001 (ip), vehicle: other): 148 % of control
survivor count (dose: 64.0 mg/kg/injection, schedule: Q01DX009 (ip), vehicle: other): 10 of 10
survivor count (dose: 65.0 mg/kg/injection, schedule: Q01DX001 (ip), vehicle: saline): 5 of 10
T/C (dose: 79.0 mg/kg/injection, schedule: Q01DX001 (oral), vehicle: saline): 141 % of control
survivor count (dose: 80.0 mg/kg/injection, schedule: Q01DX001 (ip), vehicle: other): 9 of 10
survivor count (dose: 96.0 mg/kg/injection, schedule: Q01DX001 (ip), vehicle: saline): 10 of 10
survivor count (dose: 160.0 mg/kg/injection, schedule: Q01DX001 (ip), vehicle: other): 3 of 10
survivor count (dose: 192.0 mg/kg/injection, schedule: Q01DX001 (ip), vehicle: saline): 1 of 10

CC1(NC(=O)N(CCCl)N=O)CCCC1
survivor count (dose: 375.0 mg/kg/injection, schedule: Q01DX001 (ip), vehicle: carboxymethylcellulose (CMC)): 10 of 10

O=NN(CCCl)C(=O)NC1CCCCCCCCCCC1
T/C (dose: 555.0 mg/kg/injection, schedule: Q01DX001 (ip), vehicle: other): 142 % of control
T/C (dose: 838.0 mg/kg/injection, schedule: Q01DX001 (ip), vehicle: other): 136 and 146 % of control
T/C (dose: 1192.0 mg/kg/injection, schedule: Q01DX001 (ip), vehicle: other): 147 % of control [9 of 10 alive]
T/C (dose: 1875.0 mg/kg/injection, schedule: Q01DX001 (ip), vehicle: other): 129 % of control

CCOC(N)=O
survivor count (dose: 2390.0 mg/kg/injection, schedule: Q01DX001 (ip), vehicle: saline): 1 of 10
